Results as given in article PMC3169580.
No constants are given. Whether binding was seen depends on the method and setting. In cells and extracts the contact can be indirect. Some binding calls cover weakened binding; strength is not graded here. Sequences can lack the tags named with a protein.

Target: T1, dAPPBP1-HA (Drosophila) (UniProt Q9VTE9)
T1 sequence: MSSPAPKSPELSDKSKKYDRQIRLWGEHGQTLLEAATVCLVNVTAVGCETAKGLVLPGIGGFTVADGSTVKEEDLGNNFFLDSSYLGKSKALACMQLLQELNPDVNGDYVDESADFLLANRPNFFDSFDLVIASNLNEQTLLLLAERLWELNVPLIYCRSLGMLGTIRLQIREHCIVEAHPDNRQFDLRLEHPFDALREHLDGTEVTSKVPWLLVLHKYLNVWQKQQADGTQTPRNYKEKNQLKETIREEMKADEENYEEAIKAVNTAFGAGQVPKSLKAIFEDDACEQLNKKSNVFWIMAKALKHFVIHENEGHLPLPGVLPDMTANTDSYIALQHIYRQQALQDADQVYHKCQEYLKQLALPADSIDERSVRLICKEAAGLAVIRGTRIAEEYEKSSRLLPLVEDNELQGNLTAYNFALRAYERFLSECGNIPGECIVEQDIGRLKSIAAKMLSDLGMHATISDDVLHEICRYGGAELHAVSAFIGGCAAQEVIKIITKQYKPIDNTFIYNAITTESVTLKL
Experiment: co-IP; cl-8 cells transiently transfected with dAPPBP1-HA and CG13343-V5; lysed in NP-40 buffer (1% NP-40, 150 mM NaCl, 50 mM Tris-Cl, pH 8); anti-HA-conjugated agarose used to precipitate dAPPBP1-HA; 0.5% of lysate as input

binding: binds
B1: V5-tagged CG13343 (CG13343-V5) (enzyme, UniProt Q9V6U8 1-450)
chain: MSVHSPNPGLILQSKRFNGLRNILEREGPFCKDGFAASSENLEFLQTKCQVLIIGAGGLGCELLKDLALMGFGNLHVIDMDTIELSNLNRQFLFRRTDIGASKAECAARFINARVPTCRVTPHFKKIQDFDESFYQQFHLVVCGLDSIVARRWINGMLLSMLRYEEDGTIDTSSIVPMIDGGTEGFKGNARVILPGFTACIECTLDLFPPQVNYPLCTIANTPRLPEHCIEYVKIIQWEKQNPFGVPLDGDDPQHIGWIYERALERSNEFNITGVTYRLVQGVVKHIIPAVASTNAAIAAACALEVFKLATSCYDSMANYLNFNDLDGIYTYTYEAEKSENCLACSNTPQPLPIEDPNTTTLEDVIKLLCDSPRFQLKSPALTTVMKDGKRRTLYMSGVKSIEEATRKNLTQSLGELGLHDGQQLTVTDATSPSAMTLQLKYQSNEVEMV
